According to US20050130235A1:
Results are given in words; binding and its absence hold for the method and conditions named. Some entries that bind do so weakly or less than the wild type.

Chains of the proteins cited; added tags and fusions are not shown. Residues count along the entry.
UniProt P01012, residues 2-386: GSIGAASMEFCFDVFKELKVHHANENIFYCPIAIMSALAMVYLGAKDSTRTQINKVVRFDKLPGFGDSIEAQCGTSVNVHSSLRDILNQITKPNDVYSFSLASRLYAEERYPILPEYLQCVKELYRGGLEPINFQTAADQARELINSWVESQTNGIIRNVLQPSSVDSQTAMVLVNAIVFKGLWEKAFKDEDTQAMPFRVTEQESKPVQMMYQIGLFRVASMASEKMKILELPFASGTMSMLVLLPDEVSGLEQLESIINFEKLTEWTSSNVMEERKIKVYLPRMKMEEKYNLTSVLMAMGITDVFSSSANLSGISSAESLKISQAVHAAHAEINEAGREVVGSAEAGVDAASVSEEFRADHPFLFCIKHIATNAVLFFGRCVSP
UniProt P10968, residues 27-197: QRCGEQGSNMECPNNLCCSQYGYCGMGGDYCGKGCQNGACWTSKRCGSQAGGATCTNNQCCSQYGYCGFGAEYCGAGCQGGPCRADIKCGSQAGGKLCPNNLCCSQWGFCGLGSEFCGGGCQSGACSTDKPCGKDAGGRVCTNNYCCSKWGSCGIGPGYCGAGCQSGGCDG

Target: ovalbumin (UniProt P01012)
Test: lectin blot, WGA-HRP

binding: binds
Substance: wheat-germ agglutinin (WGA) lectin (from UniProt P10968 27-197)
